Publication PMC8172321
No constants are given. Whether binding was seen depends on the method and setting. In cells and extracts the contact can be indirect. Some results given as binding are weak or reduced against the parent protein; the word gives no strength.

Protein sequences, listed by entry. Tags and fused reporters are not part of them.
UniProt P84022: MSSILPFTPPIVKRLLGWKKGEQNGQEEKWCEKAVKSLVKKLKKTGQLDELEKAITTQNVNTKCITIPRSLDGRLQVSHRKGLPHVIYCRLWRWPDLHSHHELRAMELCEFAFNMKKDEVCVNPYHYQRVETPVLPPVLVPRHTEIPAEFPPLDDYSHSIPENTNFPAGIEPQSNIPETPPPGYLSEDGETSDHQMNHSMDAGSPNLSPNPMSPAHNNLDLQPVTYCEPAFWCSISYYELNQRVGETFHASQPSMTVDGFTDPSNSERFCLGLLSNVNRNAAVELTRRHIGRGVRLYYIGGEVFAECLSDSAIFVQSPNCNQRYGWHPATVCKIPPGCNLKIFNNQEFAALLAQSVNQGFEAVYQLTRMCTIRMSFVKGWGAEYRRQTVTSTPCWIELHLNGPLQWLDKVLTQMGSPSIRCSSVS
UniProt Q8N6T7: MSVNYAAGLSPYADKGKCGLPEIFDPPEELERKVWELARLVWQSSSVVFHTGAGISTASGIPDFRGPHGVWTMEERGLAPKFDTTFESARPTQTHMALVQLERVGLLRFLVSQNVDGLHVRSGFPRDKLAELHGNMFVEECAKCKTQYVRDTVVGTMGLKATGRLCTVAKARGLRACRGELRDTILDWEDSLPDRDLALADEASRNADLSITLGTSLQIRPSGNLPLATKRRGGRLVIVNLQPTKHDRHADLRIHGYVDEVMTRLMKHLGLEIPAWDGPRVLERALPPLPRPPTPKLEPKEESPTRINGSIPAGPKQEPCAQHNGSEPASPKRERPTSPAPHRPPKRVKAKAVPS

Biological target: Flag-tagged Smad3 (UniProt P84022)
Test: co-IP; Flag-Smad3 transfected into HK2 cells cultured in Mann or HG medium; NP-40 lysis buffer (50 mM Tris pH 7.5, 150 mM NaCl, 1 mM EDTA, 0.25% sodium deoxycholate); anti-Flag and Protein A/G PLUS-Agarose at 4°C overnight; blot with anti-Sirt6 for endogenous Sirt6

binding: binds
Substance: Sirt6 (from UniProt Q8N6T7 1-355) (enzyme)
